According to PMC9275676:
Results are given in words; binding and its absence hold for the method and conditions named. In cells and extracts the contact can be indirect. Here binding means that the protein was enriched with, or labelled near, the bait; the list need not be complete.

Protein sequences, listed by entry. Tags and fused reporters are not part of them.
UniProt O15550: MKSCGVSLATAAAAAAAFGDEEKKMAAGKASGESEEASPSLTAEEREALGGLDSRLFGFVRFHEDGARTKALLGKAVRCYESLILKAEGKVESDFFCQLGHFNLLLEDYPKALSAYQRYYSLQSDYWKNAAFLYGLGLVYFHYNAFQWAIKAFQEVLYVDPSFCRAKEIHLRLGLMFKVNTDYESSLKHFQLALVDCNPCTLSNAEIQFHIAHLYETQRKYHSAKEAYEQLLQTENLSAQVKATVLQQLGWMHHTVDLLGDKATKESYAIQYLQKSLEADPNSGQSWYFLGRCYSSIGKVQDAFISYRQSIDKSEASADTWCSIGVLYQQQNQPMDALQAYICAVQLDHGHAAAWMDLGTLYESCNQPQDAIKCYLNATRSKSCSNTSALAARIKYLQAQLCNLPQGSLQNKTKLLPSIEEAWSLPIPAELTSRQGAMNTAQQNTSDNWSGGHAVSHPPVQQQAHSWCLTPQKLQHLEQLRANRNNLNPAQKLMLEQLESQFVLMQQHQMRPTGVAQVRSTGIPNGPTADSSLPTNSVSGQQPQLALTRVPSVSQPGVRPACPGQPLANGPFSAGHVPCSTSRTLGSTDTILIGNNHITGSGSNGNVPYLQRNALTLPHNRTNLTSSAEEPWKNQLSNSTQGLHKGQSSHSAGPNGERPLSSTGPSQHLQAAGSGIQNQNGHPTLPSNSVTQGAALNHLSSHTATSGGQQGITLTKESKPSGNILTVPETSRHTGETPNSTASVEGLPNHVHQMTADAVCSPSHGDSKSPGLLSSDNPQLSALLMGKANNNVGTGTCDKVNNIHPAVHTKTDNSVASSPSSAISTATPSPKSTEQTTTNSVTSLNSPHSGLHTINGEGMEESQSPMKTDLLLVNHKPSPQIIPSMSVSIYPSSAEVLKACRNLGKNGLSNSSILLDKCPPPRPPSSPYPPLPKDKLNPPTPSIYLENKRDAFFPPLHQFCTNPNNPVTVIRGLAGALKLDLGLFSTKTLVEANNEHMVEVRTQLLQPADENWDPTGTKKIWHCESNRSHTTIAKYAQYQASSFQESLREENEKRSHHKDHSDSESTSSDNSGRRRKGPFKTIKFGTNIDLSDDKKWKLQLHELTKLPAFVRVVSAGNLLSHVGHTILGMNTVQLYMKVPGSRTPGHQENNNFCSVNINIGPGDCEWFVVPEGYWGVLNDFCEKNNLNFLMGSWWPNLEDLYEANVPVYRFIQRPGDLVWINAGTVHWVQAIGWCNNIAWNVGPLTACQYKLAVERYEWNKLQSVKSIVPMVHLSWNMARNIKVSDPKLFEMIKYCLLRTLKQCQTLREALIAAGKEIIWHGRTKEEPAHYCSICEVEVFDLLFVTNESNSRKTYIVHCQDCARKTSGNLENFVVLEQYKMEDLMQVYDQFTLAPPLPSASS

Target: FLAG-UTX (tetracycline-inducible HEK293 line) (UniProt O15550)
Experiment: affinity purification with mass spectrometry; FLAG-UTX IP from nuclear extracts of HEK293 cells, LC-MS/MS of gel bands; FLAG-tag expressing cells as control

- binding: binds
B1: ELMSAN1 (endogenous, human cells) (protein, UniProt Q6PJG2 1-1045)
chain: MNLQAQPKAQNKRKRCLFGGQEPAPKEQPPPLQPPQQSIRVKEEQYLGHEGPGGAVSTSQPVELPPPSSLALLNSVVYGPERTSAAMLSQQVASVKWPNSVMAPGRGPERGGGGGVSDSSWQQQPGQPPPHSTWNCHSLSLYSATKGSPHPGVGVPTYYNHPEALKREKAGGPQLDRYVRPMMPQKVQLEVGRPQAPLNSFHAAKKPPNQSLPLQPFQLAFGHQVNRQVFRQGPPPPNPVAAFPPQKQQQQQQPQQQQQQQQAALPQMPLFENFYSMPQQPSQQPQDFGLQPAGPLGQSHLAHHSMAPYPFPPNPDMNPELRKALLQDSAPQPALPQVQIPFPRRSRRLSKEGILPPSALDGAGTQPGQEATGNLFLHHWPLQQPPPGSLGQPHPEALGFPLELRESQLLPDGERLAPNGREREAPAMGSEEGMRAVSTGDCGQVLRGGVIQSTRRRRRASQEANLLTLAQKAVELASLQNAKDGSGSEEKRKSVLASTTKCGVEFSEPSLATKRAREDSGMVPLIIPVSVPVRTVDPTEAAQAGGLDEDGKGPEQNPAEHKPSVIVTRRRSTRIPGTDAQAQAEDMNVKLEGEPSVRKPKQRPRPEPLIIPTKAGTFIAPPVYSNITPYQSHLRSPVRLADHPSERSFELPPYTPPPILSPVREGSGLYFNAIISTSTIPAPPPITPKSAHRTLLRTNSAEVTPPVLSVMGEATPVSIEPRINVGSRFQAEIPLMRDRALAAADPHKADLVWQPWEDLESSREKQRQVEDLLTAACSSIFPGAGTNQELALHCLHESRGDILETLNKLLLKKPLRPHNHPLATYHYTGSDQWKMAERKLFNKGIAIYKKDFFLVQKLIQTKTVAQCVEFYYTYKKQVKIGRNGTLTFGDVDTSDEKSAQEEVEVDIKTSQKFPRVPLPRRESPSEERLEPKREVKEPRKEGEEEVPEIQEKEEQEEGRERSRRAAAVKATQTLQANESASDILILRSHESNAPGSAGGQASEKPREGTGKSRRALPFSEKKKKTETFSKTQNQENTFPCKKCGR
